# Measured values: patent US20120318750A1, “METHODS AND COMPOSITIONS FOR COMPLEX BINDING OF METAL IONS” (ChemseQ International AB, priority 2009, published 2012)
# Legend:
# [1] = Flotation of copper ions with sequestering agent in a flotation cell, metal analysis of foam; conditions: 1 mg copper as copper sulphate, pH 5.5
# [2] = Flotation of manganese ions with sequestering agent in a flotation cell, metal analysis of foam; conditions: 1 mg manganese as manganese sulphate, pH 5.5
# Excerpt: In order to investigate the separability of a sequestering agent according to the invention a small flotation cell was used. This flotation cell has a volume of approximately 1.6 l, a height of 315 mm and an inner diameter of 80 mm. Compressed air used to form the foam is led through a porous sintered glass filter of diameter 60 mm with a nominal porosity of 10-16 μm (“porosity 4”) mounted at the bottom of the flotation cell. At the top of the flotation cell a cylinder of an inner diameter of 30 mm and a height of 415 mm, with an outlet placed at 72 mm from the bottom, is mounted. The outlet is used to collect the foam and thereby the chelate according to the invention. At the top of the latter cylinder an adjustable valve is mounted to be able to better control the foaming and to direct the foam to the outlet.
# was prepared from 2-aminoethanol, tert-butyl bromoacetate and tert-butyl 2-aminotetradecanoate as main ingredients using conventional techniques and was therafter mixed in 500 ml deionised water with 1 mg of manganese in the form of manganese sulphate (in a molar ratio of 1.2:1=sequestering agent: manganese sulphate) and a flotation agent (N,N-dimethyldodecylamine N-oxide, in a molar ratio of 10:1=flotation agent:sequestering agent).
# The pH-value of the solution was adjusted to pH 5.5 with 0.1 M sodium hydroxide solution or 0.1 M hydrogen chloride solution. […]
# [3] = Sequestering of metal ions in thermomechanical pulp, manganese content of pulp after treatment; conditions: TMP from spruce, 0.17 mmol sequestering agent, pH 6.2, 60 min; starting pulp 104 mg/kg
# Protocol: The cellulose pulp was removed directly after the refiner in a TMP-plant and its dry solids content was determined with the aid of “Mettler Toledo HR 73 Halogen Moisture Analyzer”. 70 g bone-dry cellulose pulp was then slushed in 1.4 l cold distilled water with the aid of a slusher of model “Lorentzon & Wettre App. 03, type 8-3, no. 723”. The cellulose pulp with a concentration of 4.8 percent by weight was filtered on a Büchner funnel and the filtrate was returned to be filtered again.
# Thereafter the cellulose pulp was slushed in 1.4 l distilled water at a temperature of 55° C. The pulp suspension was left to stand for 1 h and was then filtered two times according to the same process being described above. […]
# was prepared as described in Example 1 and added to a portion of the pulp. […] The pH was measured in the pulp suspension and it amounted to 6.2 and the cellulose pulp suspension was allowed to stand, i.e. the sequestering agent was allowed to work for a time of 60 min. […] The manganese content of the cellulose pulp was determined, on one hand, on non-treated pulp, and on the other hand on the portions having been treated with the respective sequestering agents according to the following: 1 g of bone-dry cellulose pulp was transferred to a Teflon-lined vessel specially designed for microwave oven digestion (Microwave Accelerated Reaction System, MARS 5, CEM). […]
SMILES,concentration of copper in the foam relative to concentration in the solution before the flotation [1],concentration of manganese in the foam relative to concentration in the solution before the flotation [2],manganese content of the pulp after treatment and removal of chelates [3] [mg/kg]
"CCCCCCCCCCCCC(C(=O)O)N(CCN(CC(=O)O)CC(=O)O)CC(=O)O (stereo not drawn) [2-dodecyl-3,6-di(carboxymethyl)-3,6-diazaoctane diacid]",about ten times higher,about ten times higher,6.2
CCCCCCCCCCCCC(C(=O)O)N(CC(=O)O)CC(=O)O (stereo not drawn) [2-dodecyl-3-carboxymethyl-3-azapentane diacid],about thirteen times higher,about two times higher,–
"O=C(O)CN(CCN(CC(=O)O)CC(=O)O)CCN(CC(=O)O)CC(=O)O [DTPA, diethylenetriaminepentaacetic acid, reference compound]",–,–,9.3
